Results as given in PubChem BioAssay AID493014 (National Center for Advancing Translational Sciences (NCATS), 2011).
The whole screen tested about 340,000 compounds, of which about 170 (0.05%) were called active. Inconclusive results, whose numbers are uncertain, are shown with a selection of clear calls. The call rests on the fitted dose curve; in most records, active means well fitted inhibition curve with a large enough effect in the signal ratio, with a control signal flat (not every such curve was filed as active); inconclusive means small, poorly fitted or top-dose-only effect, or effect the other way, or a change in a side signal; inactive means flat fitted curve, though single readings scatter; the % refers to the signal ratio. Where the call is inconclusive, the potency comes from a doubtful curve fit.

Experiment: qHTS Assay to Find Inhibitors of Chronic Active B-Cell Receptor Signaling;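 on activity change, negative = inhibition: plate controls were basal doxycycline-induced cells for no effect and cells given 10 µM MG132 for full effect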
Conditions: ABC-DLBCL IkBa-CBG/CBR reporter, luminescence ratio (green luciferase fused to IkBa over red control in TMD8 lymphoma cells), 4 h; activity change, negative = inhibition: at 46.1 µM (top of the series)
Outline: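 TMD8 human ABC-DLBCL cells with doxycycline-inducible IκBα–green luciferase fusion and unfused red luciferase, in 0.5% FBS medium; compounds up to 46 uM, 4 h at 37C. Green/red luminescence ratio, filter-overlap corrected, fitted to concentration-response curves.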
Potency means the concentration at half of the fitted maximal effect.

Row | SMILES | activity change, negative = inhibition | Potency
1 | O=C(CSc1nc2ccccc2c(=O)[nH]1)c1cccs1 | inconclusive: -20.8% | –
2 | CN(C)C(=O)c1cc(C(=O)c2ccc(C(F)(F)F)cc2)c[nH]1 | inconclusive: 10.1% | –
3 | CCCc1ccc(-c2cc(NC(=O)CSc3n[nH]c(N)n3)n(-c3ccccc3)n2)cc1 | inconclusive: 19.5% | –
4 | CCOC(=O)c1oc2ccc(S(=O)(=O)Nc3ccc4c(c3)n(C)c(=O)n4C)cc2c1C | inconclusive: -6.1% | –
5 | Cc1ccc([N+](=O)[O-])c(C(=O)N/N=C/c2cccs2)c1 | inactive: -19.4% | –
6 | CCOc1ncccc1C(=O)OCC(=O)Nc1nnc(-c2ccccc2)o1 | – | inconclusive: 23.1 µM [falling, single point]
7 | CCN1CCN(C(=O)C2CCN(c3nnc(-n4c(C)ccc4C)s3)CC2)CC1 | inconclusive: -3.32% | –
8 | CCOc1ccc(/C=C/C(=O)c2ccccc2)cc1 | – | inconclusive: 35.5 µM [falling, single point]
9 | COc1cc2c(C(=O)N3CCN(C)CC3)c(C)n(-c3ccccc3)c2cc1Br | inactive: -4.71% | –
10 | O=C1/C(=C\c2ccc(O)cc2)SC(=S)N1/N=C/c1ccc(O)cc1 | – | inconclusive: 6.31 µM [falling, single point]
11 | COc1ccc(CNC(=O)CN(c2ccc(OC)cc2)S(=O)(=O)c2c(C)nn(C)c2C)cc1 | inconclusive: 1.24% | –
12 | CCc1ccc(Nc2nnc(SCC(=O)Nc3sccc3C(N)=O)s2)cc1 | inconclusive: -9.01% | –
13 | CN1CCSc2ccc(C(=O)NCc3ccccc3F)cc21 | – | inconclusive: 25.1 µM [falling, partial curve, poor fit]
14 | Cc1ccc(/C=C2/SC(=S)N(CCC(=O)N3CCOCC3)C2=O)cc1 | inconclusive: -22% | –
15 | CN(CC(=O)N1CCc2ccccc21)S(=O)(=O)c1ccc(Cl)cc1 | inconclusive: 12.1% | –
16 | CC1(C)CC2CC(C)(CN2C(=O)COC(=O)CNC(=O)c2ccc(Cl)c(Cl)c2)C1 (stereo not drawn) | inactive: 2.13% | –
17 | Cc1csc(SC(C)C(=O)Nc2ccc3c(c2)OCCO3)n1 (stereo not drawn) | – | inconclusive: 14.1 µM [falling, partial curve]
18 | Cc1nc2cc(-c3ccc(F)cc3)[nH]n2c(=O)c1C | – | inconclusive: 35.5 µM [falling, single point]
19 | CCCCOc1ccc(-c2nnc(N)s2)cc1 | inconclusive: 8.01% | –
20 | Cc1cccc(C)c1NC(=S)NC(C)(C)CO | inconclusive: 0.451% | –
21 | O=C(N/N=C/c1ccco1)c1cc(-c2ccccc2)n[nH]1 | inconclusive: -10.6% | –
22 | O=C(c1oc2ccccc2c1CSCc1ccccc1)N1CCN(c2ncccn2)CC1 | inconclusive: 10.7% | –
23 | N=c1oc2ccccc2cc1-c1nc(-c2ccc(Cl)cc2)cs1 | – | inconclusive: 20.6 µM [falling, single point]
24 | O=c1ccc2ccc(OCCOc3cccc(Cl)c3)cc2o1 | inconclusive: 11.3% | –
25 | Cc1noc(/C=C/N(C)C)c1S(=O)(=O)N1CCN(c2ccc(F)cc2)CC1 | – | inconclusive: 12.6 µM [rising, partial curve, poor fit]
26 | COc1ccccc1-c1ccc(SCc2ccc([N+](=O)[O-])cc2)nn1 | – | inconclusive: 12.6 µM [falling, single point]

Row | SMILES | activity change, negative = inhibition | Potency
27 | S=C(Nc1cccnc1)Nc1cccc2cnccc12 | inactive: 0.737% | –
28 | O=C(CCNC(=O)c1ccc([N+](=O)[O-])cc1)NC1CCCCCC1 | inconclusive: -6.65% | –
29 | CC(C)c1ccc(/C=C/c2[nH]c(=O)[nH]c(=O)c2[N+](=O)[O-])cc1 | inconclusive: 1.99% | –
30 | CNC(=O)c1ccsc1NC(=O)CCS(=O)(=O)c1ccc(F)cc1 | inconclusive: -23.5% | –
31 | CC(C)(C)NC(=O)N1CCN(c2nc3ccc(Cl)cc3s2)CC1 | inconclusive: 10.4% | –
32 | COc1ccc(-n2c(C)nc3c(cnn3-c3ccc(C)c(C)c3)c2=O)cc1 | inconclusive: 1.84% | –
33 | Cc1nn2c(COc3ccc(NC(=O)c4ccccc4Cl)cc3)nnc2c2ccccc12 | – | inconclusive: 18.4 µM [falling, partial curve, poor fit]
34 | Cc1cc(C)cc(Oc2ncnc3c2ncn3Cc2c(Cl)cccc2Cl)c1 | inconclusive: -1.69% | –
35 | CCCCC(c1nnnn1C1CCCC1)N1CCN(C(=O)c2ccco2)CC1 (stereo not drawn) | inconclusive: 14.2% | –
36 | COCCCN(C(=O)c1ccco1)c1nc(-c2cc(OC)ccc2OC)cs1 | inconclusive: -1.79% | –
37 | COC(=O)c1c(C)oc2ccc(NS(=O)(=O)c3cccs3)cc12 | inconclusive: -3.93% | –
38 | Cc1ccc(OCC(=O)Oc2c(C)cccc2C)cc1 | inactive: 6.77% | –
39 | Cc1cccn2c(=O)c3cc(C#N)c(=N)n(CCN4CCOCC4)c3nc12 | inconclusive: 7.86% | –
40 | CC(C)c1cccc(OCC(=O)Nc2ccc(S(=O)(=O)Nc3ccccn3)cc2)c1 | – | inconclusive: 22.4 µM [falling, single point]
41 | Cc1nn2c(nc1=O)NNC2(C)C(C)(C)C (stereo not drawn) | – | inconclusive: 35.5 µM [cytotoxic, single point]
42 | C[C@]12C=CC(=O)C=C1CC[C@@H]1C2[C@@H](O)C[C@@]2(C)C1CC[C@]2(O)C(=O)COC(=O)CCC(=O)O (stereo partly drawn) | inconclusive: -10.4% | –
43 | CN(c1ccc(C(=O)NCc2cccs2)cc1)S(=O)(=O)c1ccccc1 | inactive: 0.0746% | –
44 | CCN(CC(=O)Nc1ccc(OC)cc1)C(=O)Cc1cccs1 | inactive: -0.507% | –
45 | Cc1ccc2nc(NC(=O)C3CSC4(C)CCC(=O)N34)sc2c1 (stereo not drawn) | inconclusive: 19.9% | –
46 | COc1cc([N+](=O)[O-])cc(/C=N/N(CCC#N)C(C)=O)c1O | inactive: 9.27% | –
47 | CC(C)(C)OC(=O)[C@H](Cc1ccccc1)NC(=O)c1nc[nH]c1C(=O)N[C@@H](Cc1ccccc1)C(=O)OC(C)(C)C | inactive: 13.5% | –
48 | CCc1nnc(NC(=O)CSc2nnc(Cc3cc(=O)[nH]c(=O)[nH]3)n2-c2cccc(OC)c2)s1 | inconclusive: -10.7% | –
49 | CC[C@]12c3[nH]c4ccccc4c3CCN1C(=O)C(CC(=O)NCC13CC4CC(CC(C4)C1)C3)C[C@@H]2C(=O)N1CCN(C(=O)c2ccco2)CC1 (stereo partly drawn) | inconclusive: -3.54% | –
50 | O=C(c1cc2ccccc2o1)N1CCN(C/C=C/c2ccccc2)CC1 | inconclusive: -12.9% | –
51 | OCCC1CN(Cc2ccccn2)CCN1C1CCCC1 (stereo not drawn) | inconclusive: 4.82% | –
52 | CCCCCC1(C(=O)OCC)CC(CSC(=N)N)OC1=O (stereo not drawn) | inconclusive: -7.73% | –

3 compounds out of the list, ordered by number of heavy atoms, low to high:
Row | SMILES | activity change, negative = inhibition | Potency
51 | OCCC1CN(Cc2ccccn2)CCN1C1CCCC1 (stereo not drawn) | inconclusive: 4.82% | –
39 | Cc1cccn2c(=O)c3cc(C#N)c(=N)n(CCN4CCOCC4)c3nc12 | inconclusive: 7.86% | –
7 | CCN1CCN(C(=O)C2CCN(c3nnc(-n4c(C)ccc4C)s3)CC2)CC1 | inconclusive: -3.32% | –

Later entries:

Row | SMILES | activity change, negative = inhibition | Potency
53 | O=C(OCc1ccc(F)cc1)c1cc(=O)c2ccccc2o1 | – | inconclusive: 14.1 µM [rising, partial curve, poor fit]
54 | COc1ccc(CN(CC2CCC(C(=O)O)CC2)C(=S)Nc2ccc(C)c(Cl)c2)cc1 (stereo not drawn) | inconclusive: -0.958% | –
55 | COc1ccc2ccc(OCC(=O)Nc3cc(C)on3)cc2c1 | inactive: -0.178% | –
56 | CCOC(=O)c1[nH]c2cc(OC)c(OC)cc2c1NC(=O)CN1CCN(c2ccc(OC)cc2)C(C)C1 (stereo not drawn) | – | inconclusive: 9.2 µM [falling, partial curve]
57 | CC(C)NC(=S)N/N=C1\CCCCC1C1CCCCC1 (stereo not drawn) | – | inconclusive: 13 µM [rising, partial curve, poor fit]
58 | COc1ccc(OC)c(/C=C/C(=O)N(C)CC(=O)Nc2cc(C)ccc2C)c1 | inactive: 0.396% | –
59 | O=C(CSc1ccc2c(c1)OCCO2)Nc1ncccc1O | – | inconclusive: 20.6 µM [falling, partial curve, poor fit]
60 | COc1ccc(/C=C/C(=O)N2CCCC2)cc1OC | inconclusive: -30.1% | –
61 | CC(C)(C)c1ccc(OCCC(=O)NCC(c2cccs2)N2CCOCC2)cc1 (stereo not drawn) | – | inconclusive: 29.1 µM [falling, partial curve, poor fit]
62 | COc1cc(C(=O)NCCCN2CCCC2=O)ccc1OCc1ccc(Cl)cc1Cl | inactive: -19.3% | –
63 | CN1C(=O)c2c(sc3c2CC(C)(C)SC3)N2CCN=C12 | – | inconclusive: 17.8 µM [cytotoxic, partial curve]
64 | CC(=O)Nc1ccc(NC2=Nc3ccccc3N3C2=Nc2c(c(C)nn2-c2ccccc2)C3c2ccccc2)cc1 (stereo not drawn) | inconclusive: -12% | –
65 | CN1CSC2=C(C#N)C(c3cccc(OCc4ccccc4)c3)CC(=O)N2C1 (stereo not drawn) | – | inconclusive: 35.5 µM [falling, single point]
66 | C=CCNC(=O)c1ccccc1NC(=O)c1ccc(Cl)c(S(=O)(=O)Nc2cc(C)ccc2C)c1 | inactive: -4.88% | –
67 | CCOC(=O)C1CCCN(c2c(NCCCN3CCCC(C)C3)c(=O)c2=O)C1 (stereo not drawn) | inconclusive: -1.66% | –
68 | CCc1ccc(C(=O)COC(=O)c2cc([N+](=O)[O-])ccc2NCCO)cc1 | inconclusive: 5.4% | –
69 | O=C(CNC(=O)c1ccc(S(=O)(=O)N2CCCC2)cc1)N/N=C/c1ccccc1Cl | inconclusive: 3.03% | –
70 | Cc1ccc(-c2nn3c(C)nnc3c3ccccc23)cc1S(=O)(=O)N(C)CCO | – | inconclusive: 3.26 µM [falling, full curve]
71 | CCc1c(C)c(C#N)c2nc3ccccc3n2c1Cl | – | active: 8.2 µM
72 | O=C(NC1C2CCCC1CN(C1CC1)C2)c1ccc(Cl)cc1 (stereo not drawn) | inactive: 3.61% | –
73 | O=C(COC(=O)c1c(F)cccc1Cl)NC(=O)Nc1ccc2c(c1)OCCO2 | inconclusive: -1.63% | –
74 | CCN(CC)C(=O)c1ccc(-c2nnc(Nc3cccc(O)c3)c3ccccc23)cc1 | inactive: -9.63% | –
75 | CCOC(=O)C1CCN(C(=O)CCn2c(=O)[nH]c3ccsc3c2=O)CC1 | inactive: 0.611% | –
76 | CC(=O)Nc1nc2ccc(S(=O)(=O)N3CCCCC3)cc2s1 | inconclusive: -6.89% | –
77 | Cc1ccc(OCc2nnc(SCC(=O)c3cccc([N+](=O)[O-])c3)n2C)cc1 | inactive: 7.96% | –
78 | CCN(CC(=O)NCc1ccc(Cl)cc1)C(=O)c1cc(S(=O)(=O)N2CCOCC2)ccc1C | inactive: 2.41% | –
